The numbers were not newly measured in paper PMC7705649 (Scientific Reports, 2020), which cites them from elsewhere.

The subject of the data set is HSA protein. The following applies: cited from earlier work.
For the compound `O=C(O)CCNC(=O)c1ccc(/N=N/c2ccc(O)c(C(=O)O)c2)cc1` [BSZ, balsalazide], the “binding site on HSA protein” value was “Domain IIIa”.

`Nc1nc(=O)c2nc(CNc3ccc(C(=O)N[C@@H](CCC(=O)O)C(=O)O)cc3)cnc2[nH]1` [FA, folic acid]: the “binding site on HSA protein” value was “Domain I”.

Regarding `Nc1ccc(O)c(C(=O)O)c1` [MSZ, mesalazine], the “binding site on HSA protein” value is on record as “Domain IIIa”.

Consider `O=C(O)c1cc(/N=N/c2ccc(S(=O)(=O)Nc3ccccn3)cc2)ccc1O` [SASP, sulfasalazine], for which the “binding site on HSA protein” value is “Domain IIb”.
